Data published in paper PMC3127956.
No constants are given. Whether binding was seen depends on the method and setting. Some results given as binding are weak or reduced against the parent protein; the word gives no strength. For some of these results: Sequences can lack the tags named with a protein.

Amino acid sequences for entries named in this document (tags omitted).
UniProt O43741: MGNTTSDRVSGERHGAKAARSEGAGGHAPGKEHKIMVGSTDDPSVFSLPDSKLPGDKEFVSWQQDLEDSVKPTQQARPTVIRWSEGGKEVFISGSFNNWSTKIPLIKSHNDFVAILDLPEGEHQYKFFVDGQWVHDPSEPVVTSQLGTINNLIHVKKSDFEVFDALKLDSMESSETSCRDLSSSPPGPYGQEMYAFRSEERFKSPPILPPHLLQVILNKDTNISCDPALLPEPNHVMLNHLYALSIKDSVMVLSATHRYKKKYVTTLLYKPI
UniProt P62136: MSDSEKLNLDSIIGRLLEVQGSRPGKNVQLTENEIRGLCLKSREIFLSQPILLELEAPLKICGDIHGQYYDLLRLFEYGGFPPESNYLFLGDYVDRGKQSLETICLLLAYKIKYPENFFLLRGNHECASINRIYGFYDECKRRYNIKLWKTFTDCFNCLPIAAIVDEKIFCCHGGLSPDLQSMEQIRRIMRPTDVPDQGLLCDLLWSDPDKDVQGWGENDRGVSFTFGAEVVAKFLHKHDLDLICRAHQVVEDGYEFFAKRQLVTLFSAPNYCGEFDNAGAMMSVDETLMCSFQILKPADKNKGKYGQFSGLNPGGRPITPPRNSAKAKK

Legend:
Test in all cases: two-hybrid; yeast CTY10.5d co-transformed with pACT2-PTG (wild type or N249S) and LexA fusions (pBTM or pEG202 plasmids); β-galactosidase activity in permeabilized cells, Miller units
[1] = molecular target: AMP-activated protein kinase subunit β2, LexA fusion (UniProt O43741)
[2] = molecular target: T1, glycogen phosphorylase, muscular isoform (rabbit), LexA fusion (rabbit) (UniProt P00489)
T1 sequence: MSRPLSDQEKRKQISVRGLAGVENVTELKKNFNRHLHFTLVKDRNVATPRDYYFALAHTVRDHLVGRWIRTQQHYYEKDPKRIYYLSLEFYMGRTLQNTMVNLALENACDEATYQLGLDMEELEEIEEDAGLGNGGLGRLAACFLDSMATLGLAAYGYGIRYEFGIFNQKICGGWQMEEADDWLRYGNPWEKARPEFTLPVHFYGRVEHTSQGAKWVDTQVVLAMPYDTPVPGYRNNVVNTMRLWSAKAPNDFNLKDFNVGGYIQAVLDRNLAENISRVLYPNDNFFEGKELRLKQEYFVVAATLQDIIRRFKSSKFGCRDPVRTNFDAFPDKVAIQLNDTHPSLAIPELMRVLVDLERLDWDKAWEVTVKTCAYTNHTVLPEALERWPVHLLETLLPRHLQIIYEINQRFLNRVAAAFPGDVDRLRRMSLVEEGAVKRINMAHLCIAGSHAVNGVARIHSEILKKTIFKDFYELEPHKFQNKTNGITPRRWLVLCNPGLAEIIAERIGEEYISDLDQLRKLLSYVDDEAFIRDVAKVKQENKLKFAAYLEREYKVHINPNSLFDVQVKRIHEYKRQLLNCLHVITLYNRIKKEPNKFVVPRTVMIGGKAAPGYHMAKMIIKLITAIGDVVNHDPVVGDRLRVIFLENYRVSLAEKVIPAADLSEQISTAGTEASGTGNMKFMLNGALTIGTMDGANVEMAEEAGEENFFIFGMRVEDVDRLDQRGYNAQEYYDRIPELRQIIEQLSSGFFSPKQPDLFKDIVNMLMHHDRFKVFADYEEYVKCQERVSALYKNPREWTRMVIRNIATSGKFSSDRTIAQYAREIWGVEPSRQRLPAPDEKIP

laforin, LexA fusion = molecular target: T2, laforin, LexA fusion (UniProt O95278)
T2 sequence: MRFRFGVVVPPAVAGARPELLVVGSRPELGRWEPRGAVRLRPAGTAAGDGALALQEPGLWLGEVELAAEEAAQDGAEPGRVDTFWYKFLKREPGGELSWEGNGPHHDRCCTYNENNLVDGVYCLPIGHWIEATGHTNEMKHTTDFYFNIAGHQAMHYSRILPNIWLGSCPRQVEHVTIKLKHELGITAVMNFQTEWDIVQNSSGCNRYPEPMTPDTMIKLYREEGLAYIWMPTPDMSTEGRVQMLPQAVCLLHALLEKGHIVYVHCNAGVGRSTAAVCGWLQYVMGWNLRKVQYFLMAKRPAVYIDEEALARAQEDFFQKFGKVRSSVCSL

[3] = molecular target: protein phosphatase 1 alpha, LexA fusion (UniProt P62136)

Measured: binding

B1: protein targeting to glycogen (PTG), wild type, in pACT2 (protein, UniProt Q9UQK1 1-317)
chain: MSCTRMIQVLDPRPLTSSVMPVDVAMRLCLAHSPPVKSFLGPYDEFQRRHFVNKLKPLKSCLNIKHKAKSQNDWKCSHNQAKKRVVFADSKGLSLTAIHVFSDLPEEPAWDLQFDLLDLNDISSALKHHEEKNLILDFPQPSTDYLSFRSHFQKNFVCLENCSLQERTVTGTVKVKNVSFEKKVQIRITFDSWKNYTDVDCVYMKNVYGGTDSDTFSFAIDLPPVIPTEQKIEFCISYHANGQVFWDNNDGQNYRIVHVQWKPDGVQTQMAPQDCAFHQTSPKTELESTIFGSPRLASGLFPEWQSWGRMENLASYR
binds: all assays above

B2: protein targeting to glycogen (PTG) N249S variant, in pACT2 (protein, UniProt Q9UQK1 1-317)
chain: MSCTRMIQVLDPRPLTSSVMPVDVAMRLCLAHSPPVKSFLGPYDEFQRRHFVNKLKPLKSCLNIKHKAKSQNDWKCSHNQAKKRVVFADSKGLSLTAIHVFSDLPEEPAWDLQFDLLDLNDISSALKHHEEKNLILDFPQPSTDYLSFRSHFQKNFVCLENCSLQERTVTGTVKVKNVSFEKKVQIRITFDSWKNYTDVDCVYMKNVYGGTDSDTFSFAIDLPPVIPTEQKIEFCISYHANGQVFWDNSDGQNYRIVHVQWKPDGVQTQMAPQDCAFHQTSPKTELESTIFGSPRLASGLFPEWQSWGRMENLASYR
binds: [1] | [2] | [3]
